# Measured values published in the supplement of paper PMC5407854, “Inhibitor of ppGalNAc-T3-mediated O-glycosylation blocks cancer cell invasiveness and lowers FGF23 levels” (eLife, 2017).
# Some of the results follow. Small differences around the control level are noise.
# System: ppGalNAc-T3 sensor
# Assay: T3 sensor activation Q score (MG/GFP ratio z-score vs DMSO controls) (SD units); higher = more sensor activation (inhibition of ppGalNAc-T3 glycosylation)
# Conditions: HEK293 sensor cells; 10 µM; 6 h
# Description: (§1)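 Cells were treated with compound at 10 uM for 6 h, then MG/GFP ratio was read by flow cytometry (10,000 cells per well, duplicate wells). Q = (R - R_neg)/SD_neg relative to DMSO vehicle controls; the signal rises when the glycosyltransferase is inhibited.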
row,SMILES,T3 sensor activation Q score
1,O=C1c2cccc([N+](=O)[O-])c2C(=O)N1c1nccs1,-0.475
2,COc1ccc(CN2CCCN(C)CC2)c(C)c1C,-0.1
3,CC(C)Cc1ccc(C(C)C(=O)NN)cc1 (stereo not drawn),2.3
4,Cc1ccsc1CN1CCN(c2ccc(F)cc2)CC1,-0.105
5,COc1cc(CN2CCSCC2)cc(OC)c1OC,0.245
6,NC(=O)c1ccc(NC(=O)C2CC2(c2ccccc2)c2ccccc2)cc1 (stereo not drawn),0.075
7,CC(C(=O)O)c1n[nH]c(=O)c2ccccc12 (stereo not drawn),0.105
8,Cn1c(=O)c(Cl)c(O)c2ccccc21,0.305

# System: ppGalNAc-T2 sensor
# Assay: T2 sensor activation Q score (MG/GFP ratio z-score vs DMSO controls) (SD units); higher = more sensor activation (inhibition of ppGalNAc-T2 glycosylation)
# Conditions: HEK293 sensor cells; 10 µM; 6 h
# Description: as §1
row,SMILES,T2 sensor activation Q score
1,CC(=O)Nc1ccc(C2(c3ccc(NC(C)=O)cc3)NC(=O)c3ccccc32)cc1,-0.255
2,COc1cc2nc(C)[nH]c2cc1OC,-1.14
3,CNCC(O)COc1ccc(C)cc1C (stereo not drawn),0.785
4,CCN(CC)c1ccc(NC(=O)c2ccco2)cc1,1.79
5,O=C(O)C1CCCCC1C(=O)Nc1ccccc1Cl (stereo not drawn),0.925
6,O=C(CCSc1ccccc1)NC1CCCCC1,-0.475
7,c1ccc2c3c([nH]c2c1)-c1nonc1CC3,0.26
8,Cc1ccc(C)c(CN2CCC(O)CC2)c1,-0.42
9,O=C1c2cccc([N+](=O)[O-])c2C(=O)N1c1nccs1,-0.645
10,COc1cc(C)c(CN2CCc3ccccc3C2)cc1C,0.135
11,O=C(Nc1cc(Cl)ccc1Cl)[C@@H]1C[C@@H]1c1ccccc1,0.395
12,O=C(O)c1ccc2c(c1)C(=O)N(CCO)C2=O,-0.405
13,O=C(O)CC1(c2ccccc2)C(=O)c2ccccc2C1=O,-1.76
14,COc1ccc(CN2CCCN(C)CC2)c(C)c1C,-0.12
15,O=C(O)CNC(=O)c1ccc(Cl)cc1,-0.125
16,CCOc1ccccc1CN1CCN(Cc2ccc3c(c2)OCO3)CC1,1.16
17,CCc1ccccc1NC(=O)C(C)N1C(=O)c2ccccc2C1=O (stereo not drawn),-0.48
18,CCN(C(=O)Nc1cccc(Cl)c1)c1ccccc1,-0.325
19,CCN(C(=O)Cc1ccc(Cl)cc1)c1ccccc1C,-0.11
20,CC(C)Cc1ccc(C(C)C(=O)NN)cc1 (stereo not drawn),-0.425

row,SMILES,T2 sensor activation Q score
1,CCc1cccc(NC2CC(=O)N(c3ccc(Br)cc3)C2=O)c1 (stereo not drawn),-1.23
2,Cc1ccc(NC(=O)COc2ccc(Cl)cc2Cl)cc1,0.245
3,COc1cc(CN2CCN(Cc3ccccc3)CC2)cc(OC)c1O,0.115
4,Cc1ccsc1CN1CCN(c2ccc(F)cc2)CC1,-0.59
5,COc1ccc(C2NC(=O)N(C)C(C)=C2[N+](=O)[O-])cc1 (stereo not drawn),-0.25
6,CN1CCN(C(=O)c2cc(-c3ccccc3)nc3ccccc23)CC1,0.155
7,O=C(O)c1ccc(S(=O)(=O)N2CCOCC2)cc1,-0.27
8,Clc1ccc(OCc2nc3ccccc3[nH]2)c(Cl)c1,-0.265
9,Cc1cccc(N2CCN(Cc3cccs3)CC2)c1C,-0.24
10,CCOc1cc(N2CCOCC2)ccc1[N+](=O)[O-],-0.665
11,Cc1cc(F)c(F)c(C(=O)N2CCOCC2)c1Cl,0.325
12,COc1cc(CN2CCSCC2)cc(OC)c1OC,0.36
13,Cc1ccc(S(=O)(=O)Nc2c(C)cc(O)c(Br)c2C)cc1,-0.835
14,Cc1cc(-c2ccccc2)nc2cc(C(N)=O)nn12,0.285
15,CCc1ccc(CN2CCN(Cc3ccc4c(c3)OCO4)CC2)cc1,0.415
16,NC(=O)c1ccc(NC(=O)C2CC2(c2ccccc2)c2ccccc2)cc1 (stereo not drawn),-0.02
17,CCOc1ccc2nc3cc(N)ccc3c(N)c2c1,2.27
18,CC(C(=O)O)c1n[nH]c(=O)c2ccccc12 (stereo not drawn),-0.52
19,Cn1c(=O)c(Cl)c(O)c2ccccc21,-0.07
20,O=C(O)C1CCCCC1C(=O)N1CCCCCC1 (stereo not drawn),0.115

# Three compounds from above, arranged by formula weight, low to high:
row,SMILES,T2 sensor activation Q score
19,Cn1c(=O)c(Cl)c(O)c2ccccc21,-0.07
11,O=C(Nc1cc(Cl)ccc1Cl)[C@@H]1C[C@@H]1c1ccccc1,0.395
16,CCOc1ccccc1CN1CCN(Cc2ccc3c(c2)OCO3)CC1,1.16
